Data on one molecule can be found in PubChem BioAssay AID248 (DTP/NCI, 2004).

The list shows only some results of the screen, not a fair sample: it gathers tests that were run many times, whatever their T/C, doses with no T/C, and many T/C values between a quarter and a half above the control. Other doses and runs of a compound stand elsewhere. T/C: endpoint of the treated group in % of that of the vehicle group. Some entries give survivors of the animals treated and no T/C: the source files T/C as zero there, which appears to mark a toxic dose or a test without result, not a measured value. Some doses without a T/C left all or most animals alive at the check, yet need not have been tolerated: survival well below the control is almost never listed, so the zero probably covers shortened survival too. Counts of survivors are from the toxicity check (mostly the fifth day) where no day follows; animals may have died later. Schedules are NCI's codes, taken here to give the interval after Q, in days (D) or hours (H), and the number of doses after X. Where survival is the endpoint, this PubChem deposit counts one and a half times the control or more as active, and values a quarter to a half above the control carry no call in these data; other NCI protocols may use other cut-offs.

This test has as its system L1210 leukemia ip in BDF1 mice, survival T/C. Briefly: NCI In Vivo Anticancer Drug Screen. Data for tumor model L1210 Leukemia (intraperitoneal) in B6D2F1 (BDF1) mice. The note with it: T/C endpoint: mean survival time, higher T/C = longer survival.

As for `Nc1cc(Cl)c2[nH]cnc2n1`, the T/C by setting is: (dose: 14.0 mg/kg/injection, schedule: Q01DX009 (ip), vehicle: Klucel (hydroxypropylcellulose) (HPC)) 125 % of control; (dose: 21.0 mg/kg/injection, schedule: Q01DX009 (ip), vehicle: Klucel (hydroxypropylcellulose) (HPC)) 135 % of control; (dose: 33.0 mg/kg/injection, schedule: Q01DX009 (ip), vehicle: Klucel (hydroxypropylcellulose) (HPC)) 148 % of control; (dose: 40.0 mg/kg/injection, schedule: Q04DX003 (ip), vehicle: Klucel (hydroxypropylcellulose) (HPC)) 125 % of control; (dose: 60.0 mg/kg/injection, schedule: Q04DX003 (ip), vehicle: Klucel (hydroxypropylcellulose) (HPC)) 129 % of control; (dose: 90.0 mg/kg/injection, schedule: Q04DX003 (ip), vehicle: Klucel (hydroxypropylcellulose) (HPC)) 132 % of control. The T/C reads like this: (dose: 100.0 mg/kg/injection, schedule: Q04DX003 (ip), vehicle: Klucel (hydroxypropylcellulose) (HPC)) 130 % of control; (dose: 100.0 mg/kg/injection, schedule: Q04DX003 (ip), vehicle: water) 127 % of control; (dose: 133.0 mg/kg/injection, schedule: Q04DX003 (ip), vehicle: Klucel (hydroxypropylcellulose) (HPC)) 137 % of control; (dose: 200.0 mg/kg/injection, schedule: Q01DX001 (ip), vehicle: Klucel (hydroxypropylcellulose) (HPC)) 126 % of control; (dose: 200.0 mg/kg/injection, schedule: Q04DX003 (ip), vehicle: Klucel (hydroxypropylcellulose) (HPC), evaluated on day 20) 149 % of control; (dose: 200.0 mg/kg/injection, schedule: Q04DX003 (ip), vehicle: Klucel (hydroxypropylcellulose) (HPC), evaluated on day 30) 149 % of control. Also, the T/C runs as follows: (dose: 200.0 mg/kg/injection, schedule: Q04DX003 (ip), vehicle: water) 145 % of control; (dose: 300.0 mg/kg/injection, schedule: Q04DX003 (ip), vehicle: Klucel (hydroxypropylcellulose) (HPC)) 137 % of control. For the same molecule, the survivor count is reported as 6 of 6 (dose: 200.0 mg/kg/injection, schedule: Q01DX009 (ip), vehicle: Klucel (hydroxypropylcellulose) (HPC)); 1 of 6 (dose: 400.0 mg/kg/injection, schedule: Q01DX001 (ip), vehicle: Klucel (hydroxypropylcellulose) (HPC)); 1 of 6 (dose: 400.0 mg/kg/injection, schedule: Q04DX003 (ip), vehicle: Klucel (hydroxypropylcellulose) (HPC)); 2 of 6 (dose: 400.0 mg/kg/injection, schedule: Q04DX003 (ip), vehicle: water).
